PubChem BioAssay AID1508588, Peter MacCallum Cancer Centre | 2020
This is one part, drawn at random, of about 18,000 deposited reagents. 790 of all reagents (4.4%) were called active. 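Calls rest on a combination of fold-change classes in drug and vehicle arms, not all shown here.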

Assay: 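Knock-downs boosting vemurafenib effects on melanoma cell growth or lactate release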 (primary screen)
Cell system: human WM266.4 melanoma cells (BRAF V600 mutant)
Knock-down reagent: siRNA pool against human genes, 40 nM
Timing: 96 h from transfection to read-out
Challenge: vemurafenib 300 nM (about IC25), added 48 h after transfection, for 48 h; comparison arm got DMSO vehicle only
Measurement: 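Cell gain (DAPI nuclei at end minus before drug, mean of two replicates) and medium lactate by absorbance per cell, both as ratio to non-targeting siRNA, also grouped into fold-change classes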
Scale: cell gain with vemurafenib: higher = more cell gain than with non-targeting siRNA; lactate per cell with vemurafenib: higher = more lactate made per cell
Call rule: 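Enhancement is called by pairing each knock-down's vehicle-arm and drug-arm fold-change classes for viability or glycolysis; which class combinations qualify is not given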
Meaning of the calls: active = enhances vemurafenib effect; inactive = no enhancement seen

gene,cell gain with vemurafenib,lactate per cell with vemurafenib,outcome
LRRC3,0.61,0.4,inactive
ENO1,0.66,0.82,inactive
CMC1,0.25,0.92,inactive
UPF3A,0.56,0.65,active
SPARCL1,0.52,0.83,inactive
GAS2L2,0.47,2.01,inactive
CYP4Z1,0.76,0.26,inactive
HERC1,0.54,0.57,inactive
SNRPD3,0.23,1.84,inactive
AMY2A,0.59,0.65,active
LRRC75A,0.78,0.69,inactive
MTERF1,0.71,1.28,inactive
LINC01465,0.36,1.34,inactive
OPN5,0.22,2.44,inactive
SDR42E1,0.77,0.89,inactive
METTL6,0.6,1.5,inactive
OR13A1,0.52,1.15,inactive
PCDHA4,0.93,0.2,inactive
PTPRJ,0.95,0.64,inactive
AEBP1,0.82,1,inactive
TGM1,0.43,1.77,inactive
PTMA,0.53,1.19,inactive
ZNF746,0.58,1.89,inactive
LRRC43,0.57,0.62,inactive
PILRB,0.6,0.64,inactive
MAGED2,0.78,0.67,inactive
NAPB,0.35,0.42,active
ZC3H12A,0.65,0.46,active
CETN2,0.74,0.86,inactive
ZDHHC11,1.2,0.55,inactive
UGT3A2,0.03,2.75,inactive
NSUN3,1.01,0.84,inactive
PIM2,0.16,2.17,inactive
OGDH,0.41,2.08,inactive
CCNK,-0.04,3.66,inactive
S1PR4,0.44,2.12,inactive
NME6,0.7,0.96,inactive
APOBEC3B,0.55,1.36,inactive
MAP2K1,0.88,0.68,inactive
NCKIPSD,0.31,1.36,inactive
ZKSCAN2,0.27,1.7,inactive
INSYN1,0.5,1.39,inactive
OSBPL2,0.55,0.44,inactive
ARSH,0.78,0.52,inactive
C19orf25,0.79,0.99,inactive
TRMO,0,0.66,active
FAM20B,0.12,2.54,inactive
PCED1B,0.24,1.62,inactive
ZNF266,0.54,0.9,inactive
SUMO4,0.81,0.28,inactive
MTMR4,0.5,1.02,inactive
PMPCB,0.99,1.15,inactive
ZBTB21,0.54,2.12,inactive
C15orf32,1.03,1.06,inactive
LSM2,0.53,1.79,inactive
ASPG,0.79,0.78,inactive
IFNA7,0.08,1.17,inactive

Records above with an active call, once more:
gene,cell gain with vemurafenib,lactate per cell with vemurafenib,outcome
UPF3A,0.56,0.65,active
AMY2A,0.59,0.65,active
NAPB,0.35,0.42,active
ZC3H12A,0.65,0.46,active
TRMO,0,0.66,active
